Data from patent US20250313563A1, “GLYCOGEN SYNTHASE KINASE 3 INHIBITORS AND USES THEREOF” (The Broad Institute, Inc., priority 2022, published 2025).

Tested on: MDR1-MDCK cell monolayers
Experiment: MDR1/MDCK assay (blood-brain barrier penetration potential)
Settings: 5 μM, pH 7.4, 120 minutes; for MDCK permeability (MDR1-MDCK); Mean; Papp (B − A): B to A

MDCK permeability (MDR1-MDCK); Mean; Papp (A − B) (A to B)	SMILES	MDCK permeability (MDR1-MDCK); Mean; Papp (B − A)
1.6843 10^−6 cm/s and 1.37 10^−6 cm/s	CC(C)(C)Cc1[nH]nc2c1C1(CN(S(=O)(=O)CC3CC3)C1)C1=C(CC(C)(C)CC1=O)N2	21.698 10^−6 cm/s, 30.24 10^−6 cm/s, 9.3765 10^−6 cm/s, 11.71 10^−6 cm/s
–	CC(C)(C)Cc1[nH]nc2c1C1(CN(S(=O)(=O)CC3CC3)C1)C1=C(CC3(CCC3)CC1=O)N2 [Compound 107829]	27.89 10^−6 cm/s and 8.72 10^−6 cm/s

A number of entries come with more than one value. The list is limited to them. An entry can have further records. For part of these data: Values that stand side by side read as repeated measurements on other runs, samples or individuals. For part of these data: Values given together seem to repeat one measurement; one of them may be the mean.
